# Reference: the supplement of paper PMC8728848
# Some of the results follow.
# B1: CM2 (Cordyceps militaris) (protein)
# chain: MEIAEQNVGKSCAIVNLIPPKEGSNIWTAKQVTIARNLPPNRGTGRHQIDWSFGPVKVTGYVDTTNWEIGVTVSIMGIDLGTVYGNLRDGVVLNVDLFLAKGQVRFYLKNGNEVWVHLSVEIRFDGKFEGDYKIITV
# Experiments:
# Experiment in all cases: glycan array binding signal (z-score within array); higher = stronger binding
# Conditions in all cases: glycan notation: IUPAC condensed, linker removed
# Fuc(a1-2)Gal = target: Fuc(a1-2)Gal
# Procedure, shortened: (§1)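 The binding signal is a Z-score computed within each array and averaged over linkers. Arrays of the same protein sequence at different concentrations or buffers were also averaged together. Data originate from 3228 arrays in the Consortium for Functional Glycomics database, kept only where the protein sequence was available.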
# Fuc(a1-2)Gal(b1-3)GalNAc = target: Fuc(a1-2)Gal(b1-3)GalNAc
# Procedure, shortened: as §1
# [1] = target: Fuc(a1-2)Gal(b1-3)GalNAc(a1-3)[Fuc(a1-2)]Gal(b1-4)Glc
# Procedure, shortened: as §1
# [2] = target: Fuc(a1-2)Gal(b1-3)GalNAc(a1-3)[Fuc(a1-2)]Gal(b1-4)GlcNAc
# Procedure, shortened: as §1
# [3] = target: Fuc(a1-2)Gal(b1-3)GalNAc(b1-3)Gal
# Procedure, shortened: as §1
# [4] = target: Fuc(a1-2)Gal(b1-3)GalNAc(b1-3)Gal(a1-4)Gal(b1-4)Glc
# Procedure, shortened: as §1
# [5] = target: Fuc(a1-2)Gal(b1-3)GalNAc(b1-4)[Neu5Ac(a2-3)]Gal(b1-4)Glc
# Procedure, shortened: as §1
# Fuc(a1-2)Gal(b1-3)GlcNAc = target: Fuc(a1-2)Gal(b1-3)GlcNAc
# Procedure, shortened: as §1
# [6] = target: Fuc(a1-2)Gal(b1-3)GlcNAc(b1-2)Man(a1-3)[Fuc(a1-2)Gal(b1-3)GlcNAc(b1-2)Man(a1-6)]Man(b1-4)GlcNAc(b1-4)GlcNAc
# Procedure, shortened: as §1
# [7] = target: Fuc(a1-2)Gal(b1-3)GlcNAc(b1-2)Man(a1-3)[Fuc(a1-2)Gal(b1-3)GlcNAc(b1-2)Man(a1-6)]Man(b1-4)GlcNAc(b1-4)[Fuc(a1-6)]GlcNAc
# Procedure, shortened: as §1
# [8] = target: Fuc(a1-2)Gal(b1-3)GlcNAc(b1-3)Gal(b1-4)Glc
# Procedure, shortened: as §1
# [9] = target: Fuc(a1-2)Gal(b1-3)GlcNAc(b1-3)GalNAc
# Procedure, shortened: as §1
# [10] = target: Fuc(a1-2)Gal(b1-3)GlcNAc(b1-3)[Fuc(a1-2)Gal(b1-3)GlcNAc(b1-6)]GalNAc
# Procedure, shortened: as §1
# [11] = target: Fuc(a1-2)Gal(b1-3)GlcNAc(b1-3)[Gal(b1-4)GlcNAc(b1-6)]Gal(b1-4)Glc
# Procedure, shortened: as §1
# [12] = target: Fuc(a1-2)Gal(b1-3)GlcNAc(b1-3)[Neu5Ac(a2-6)Gal(b1-4)GlcNAc(b1-6)]Gal(b1-4)Glc
# Procedure, shortened: as §1
# [13] = target: Fuc(a1-2)Gal(b1-3)GlcNAc6S
# Procedure, shortened: as §1
# [14] = target: Fuc(a1-2)Gal(b1-3)[Fuc(a1-4)]GlcNAc
# Procedure, shortened: as §1
# [15] = target: Fuc(a1-2)Gal(b1-3)[Fuc(a1-4)]GlcNAc(b1-2)Man(a1-3)[Fuc(a1-2)Gal(b1-3)[Fuc(a1-4)]GlcNAc(b1-2)Man(a1-3)]Man(b1-4)GlcNAc(b1-4)GlcNAc
# Procedure, shortened: as §1
# [16] = target: Fuc(a1-2)Gal(b1-3)[Fuc(a1-4)]GlcNAc(b1-2)Man(a1-3)[Fuc(a1-2)Gal(b1-3)[Fuc(a1-4)]GlcNAc(b1-2)Man(a1-6)]Man(b1-4)GlcNAc(b1-4)[Fuc(a1-6)]GlcNAc(b1-4)[Fuc(a1-6)]GlcNAc
# Procedure, shortened: as §1
# [17] = target: Fuc(a1-2)Gal(b1-3)[Fuc(a1-4)]GlcNAc(b1-3)[Fuc(a1-3)[Gal(b1-4)]GlcNAc(b1-6)]Gal(b1-4)Glc
# Procedure, shortened: as §1
# [18] = target: Fuc(a1-2)Gal(b1-3)[Fuc(a1-4)]GlcNAc(b1-3)[Gal(b1-4)GlcNAc(b1-6)]Gal(b1-4)Glc
# Procedure, shortened: as §1
# Fuc(a1-2)Gal(b1-4)Glc = target: Fuc(a1-2)Gal(b1-4)Glc
# Procedure, shortened: as §1
# Fuc(a1-2)Gal(b1-4)Glc6S = target: Fuc(a1-2)Gal(b1-4)Glc6S
# Procedure, shortened: as §1
# Fuc(a1-2)Gal(b1-4)GlcNAc = target: Fuc(a1-2)Gal(b1-4)GlcNAc
# Procedure, shortened: as §1
# [19] = target: Fuc(a1-2)Gal(b1-4)GlcNAc(b1-2)Man
# Procedure, shortened: as §1
# [20] = target: Fuc(a1-2)Gal(b1-4)GlcNAc(b1-2)Man(a1-3)[Fuc(a1-2)Gal(b1-4)GlcNAc(b1-2)Man(a1-6)]Man(b1-4)GlcNAc(b1-4)GlcNAc
# Procedure, shortened: as §1
# [21] = target: Fuc(a1-2)Gal(b1-4)GlcNAc(b1-2)Man(a1-3)[Fuc(a1-2)Gal(b1-4)GlcNAc(b1-2)Man(a1-6)]Man(b1-4)GlcNAc(b1-4)[Fuc(a1-6)]GlcNAc
# Procedure, shortened: as §1
# [22] = target: Fuc(a1-2)Gal(b1-4)GlcNAc(b1-2)[Fuc(a1-2)Gal(b1-4)GlcNAc(b1-4)]Man(a1-3)[Fuc(a1-2)Gal(b1-4)GlcNAc(b1-2)Man(a1-6)]Man(b1-4)GlcNAc(b1-4)GlcNAc
# Procedure, shortened: as §1
# [23] = target: Fuc(a1-2)Gal(b1-4)GlcNAc(b1-3)Gal(b1-4)GlcNAc
# Procedure, shortened: as §1
# [24] = target: Fuc(a1-2)Gal(b1-4)GlcNAc(b1-3)Gal(b1-4)GlcNAc(b1-2)Man(a1-3)[Fuc(a1-2)Gal(b1-4)GlcNAc(b1-3)Gal(b1-4)GlcNAc(b1-2)Man(a1-6)]Man(b1-4)GlcNAc(b1-4)GlcNAc
# Procedure, shortened: as §1
binder,measurement,setting,value
B1,glycan array binding signal (z-score),Fuc(a1-2)Gal,-0.015
same,glycan array binding signal (z-score),Fuc(a1-2)Gal(b1-3)GalNAc,1.42
same,glycan array binding signal (z-score),[1],0.616
same,glycan array binding signal (z-score),[2],-0.08
same,glycan array binding signal (z-score),[3],-0.451
same,glycan array binding signal (z-score),[4],-0.777
same,glycan array binding signal (z-score),[5],0.28
same,glycan array binding signal (z-score),Fuc(a1-2)Gal(b1-3)GlcNAc,-0.535
same,glycan array binding signal (z-score),[6],-0.147
same,glycan array binding signal (z-score),[7],-0.231
same,glycan array binding signal (z-score),[8],0.107
same,glycan array binding signal (z-score),[9],0.327
same,glycan array binding signal (z-score),[10],0.023
same,glycan array binding signal (z-score),[11],-1.78
same,glycan array binding signal (z-score),[12],0.492
same,glycan array binding signal (z-score),[13],-0.285
same,glycan array binding signal (z-score),[14],-0.124
same,glycan array binding signal (z-score),[15],0.211
same,glycan array binding signal (z-score),[16],0.032
same,glycan array binding signal (z-score),[17],-0.546
same,glycan array binding signal (z-score),[18],0.83
same,glycan array binding signal (z-score),Fuc(a1-2)Gal(b1-4)Glc,0.296
same,glycan array binding signal (z-score),Fuc(a1-2)Gal(b1-4)Glc6S,-0.639
same,glycan array binding signal (z-score),Fuc(a1-2)Gal(b1-4)GlcNAc,0.094
same,glycan array binding signal (z-score),[19],0.18
same,glycan array binding signal (z-score),[20],-0.171
same,glycan array binding signal (z-score),[21],1.73
same,glycan array binding signal (z-score),[22],-0.363
same,glycan array binding signal (z-score),[23],-1.01
same,glycan array binding signal (z-score),[24],0.257

# Random excerpt: 2 entries already listed
binder,measurement,setting,value
B1,glycan array binding signal (z-score),[23],-1.01
same,glycan array binding signal (z-score),Fuc(a1-2)Gal(b1-4)Glc,0.296
